Test results: PubChem BioAssay AID493014 (National Center for Advancing Translational Sciences (NCATS), 2011)
The other results are listed elsewhere or left out. Further columns of the screen follow, without active or inactive calls. Most of these compounds were active or inconclusive in the main read-out, so they are no random draw. Words in brackets tell the shape of the fitted curve; partial curves, single points and poor fits give uncertain potencies.

Experiment: qHTS Assay to Find Inhibitors of Chronic Active B-Cell Receptor Signaling
Conditions: ABC-DLBCL IkBa-CBG/CBR reporter, luminescence ratio (green luciferase fused to IkBa over red control in TMD8 lymphoma cells), 4 h
Summary of the method: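 Doxycycline induced both beetle luciferases in TMD8 lymphoma cells; IKK-driven degradation limits the IkappaBalpha-fused green signal, while red luminescence normalises for cell number and nonspecific effects. Compounds tested up to 46 uM, 4 hrs.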

[1] = measured here: CBR red luminescence, cell number
[2] = measured here: IkBa-CBG green luminescence

SMILES	AC50 [1]	AC50 [2]
COc1cccc(OCc2nc3ccccc3[nH]2)c1	25.1 µM [falling, single point]	–
Cc1ccc(-c2cc(-c3ccco3)c(C#N)c(=O)[nH]2)cc1	–	3.98 µM [rising, full curve]
COc1ccccc1N(Cc1cc(=O)[nH]c2ccccc12)C(=O)c1ccc([N+](=O)[O-])cc1	35.5 µM [falling, partial curve, poor fit]	–
Cc1nc(C)c(NC(=O)N2CCc3ccccc32)cc1NC(=O)N1CCc2ccccc21	23.1 µM [rising, single point]	–
O=C(CSc1ccccc1)Nc1ccc(C(=O)Nc2ccc(O)cc2)cc1	35.5 µM [rising, single point]	–
CCOC(=O)COc1ccc(C2NC(C(=O)O)CS2)cc1 (stereo unspecified)	0.58 µM [falling, partial curve, poor fit]	–
CCOC(=O)c1ccc(N2C(=O)CC(N3CC(C)OC(C)C3)C2=O)cc1 (stereo unspecified)	6.51 µM [falling, single point]	–
COCCOc1ccc(C(F)(F)F)cc1NC(=O)CN1C(=O)NC(C)(c2ccc3c(c2)OCO3)C1=O (stereo unspecified)	29.1 µM [falling, single point]	–
O=C(NC(=S)Nc1cccnc1)c1cccc(Br)c1	3.55 µM [rising, partial curve, poor fit]	–
COc1ccccc1C1C(C(=O)c2sc(C)nc2C)=C(O)C(=O)N1CCN1CCOCC1 (stereo unspecified)	14.1 µM [falling, single point]	–
CCCn1nnc(NC(=O)c2ccccc2Br)n1	8.91 µM [falling, partial curve]	–
Oc1ccc(Nc2nc(NCC3CCCO3)c3ccccc3n2)cc1 (stereo unspecified)	11.2 µM [falling, partial curve, poor fit]	–
CCCOc1ccc(/C=N/NC(=S)Nc2ccccc2[N+](=O)[O-])c(O)c1	0.517 µM [falling, full curve, poor fit]	–
CCCCc1ccc(NC(=O)CC(C)(C)C)cc1	2.31 µM [rising, partial curve, poor fit]	–
c1ccc2c(c1)OCC(c1nnc3sc(-c4cnccn4)nn13)O2 (stereo unspecified)	29.1 µM [falling, single point]	–
CC(C)COC(=O)COc1cc(Cl)c(Cl)cc1Cl	0.103 µM [rising, full curve, poor fit]	–
COc1ccc(Cl)cc1C(=O)NCC(C)C	3.98 µM [rising, partial curve, poor fit]	–
COC(=O)c1cc(OC)c(OC)cc1NC(=S)N1CCC(C(N)=O)CC1	2.59 µM [rising, single point]	–
O=C(CCc1nnc(CCCc2ccccc2)o1)NCC(F)(F)F	12.6 µM [rising, partial curve, poor fit]	–
COc1ccc(CCNC(=O)C(=O)NCC2CCCN2S(=O)(=O)c2ccccc2)cc1 (stereo unspecified)	32.6 µM [falling, single point]	–
CN1C(=O)c2cccc3c(S(=O)(=O)NCc4ccco4)ccc1c23	–	3.26 µM [falling, partial curve, poor fit]

SMILES	AC50 [1]	AC50 [2]
O=C(Nc1ccc(Cc2ccc(NC(=O)C3CC3)c(O)c2)cc1O)C1CC1	3.66 µM [rising, full curve, poor fit]	–
COc1ccc(-c2cc(-c3ccc(C)cc3)n[nH]2)c(O)c1	10 µM [falling, partial curve, poor fit]	–
O=C(CSc1nnc(CNC(=O)c2ccc(F)cc2)o1)Nc1ccc2c(c1)OCO2	35.5 µM [rising, single point]	–
Cc1cc(=O)n2cc(-c3ccccc3)nc2[nH]1	4.11 µM [falling, partial curve]	–
CN1CCN(c2ccc(Cl)cc2NC(=O)c2ccc(S(=O)(=O)N(C)C)cc2)CC1	3.26 µM [falling, partial curve, poor fit]	–
COc1cc(/C=C2\SC(=S)N(NC(=O)c3ccncc3)C2=O)ccc1O	35.5 µM [rising, single point]	–
C[C@H](NC(=O)[C@@H]1Cc2ccccc2CN1C(=O)OC(C)(C)C)C(=O)NC1CCCCC1	22.4 µM [falling, single point]	–
CCc1cc2ccc(OC)cc2nc1SCC(=O)NNC(C)=O	15.8 µM [rising, partial curve, poor fit]	–
COc1ccc(/C=[N+](\[O-])C2N(c3ccccc3)C(=S)SC2(C)C)cc1OC (stereo unspecified)	5.01 µM [rising, partial curve]	–
O=C(N/N=C/C=C/c1ccco1)c1ccncc1	35.5 µM [falling, single point]	–
COc1ccc2nc(NC(=O)c3ccccc3[N+](=O)[O-])sc2c1	2.82 µM [falling, full curve]	–
COC(=O)c1ccc(COC(=O)C23CC4CC(CC(O)(C4)C2)C3)o1	0.1 µM [rising, full curve, poor fit]	–
CCn1cc(C(=O)N2CCc3ccccc32)c(=O)c2cc(S(=O)(=O)N(C)C3CCCCC3)ccc21	25.9 µM [rising, single point]	–
COc1nc(-c2ccccc2)nnc1-c1ccccc1	1.26 µM [falling, full curve, poor fit]	–
COc1ccc(S(=O)(=O)N(Cc2cccs2)C2CCCC2)cc1	6.51 µM [rising, single point]	–
CCOC(=O)c1cc(NC(=O)CC(C)(C)CC(=O)O)ccc1N1CCCCC1	17.8 µM [rising, partial curve, poor fit]	–
Cc1cccc(-c2noc(CNC(=O)c3ccoc3C)n2)c1	10 µM [rising, partial curve, poor fit]	–
Cc1cc(C)nc(SCc2nnc(SCc3ccccc3Cl)o2)n1	1.64 µM [rising, full curve, poor fit]	–
Cc1ccc(S(=O)(=O)N2CCC(=O)N(C(COCc3ccccc3)Cc3ccccc3)CC2)cc1 (stereo unspecified)	14.6 µM [rising, partial curve, poor fit]	–
COc1ccc(NC(=O)c2ccc3nccnc3c2)cc1	14.6 µM [falling, partial curve, poor fit]	–

Quoted at random: two entries already listed, in no set order.
SMILES	AC50 [1]	AC50 [2]
O=C(N/N=C/C=C/c1ccco1)c1ccncc1	35.5 µM [falling, single point]	–
Cc1cc(C)nc(SCc2nnc(SCc3ccccc3Cl)o2)n1	1.64 µM [rising, full curve, poor fit]	–
